Results are given in words; binding and its absence hold for the method and conditions named. Some results given as binding are weak or reduced against the parent protein; the word gives no strength.
How the values were obtained:
[1] = target: T1, B1153 protein (human, UniProt Q96JG6 1-964); assay: yeast two-hybrid; only a partial prey clone was tested
T1 construct: also called indicator protein
T1 sequence: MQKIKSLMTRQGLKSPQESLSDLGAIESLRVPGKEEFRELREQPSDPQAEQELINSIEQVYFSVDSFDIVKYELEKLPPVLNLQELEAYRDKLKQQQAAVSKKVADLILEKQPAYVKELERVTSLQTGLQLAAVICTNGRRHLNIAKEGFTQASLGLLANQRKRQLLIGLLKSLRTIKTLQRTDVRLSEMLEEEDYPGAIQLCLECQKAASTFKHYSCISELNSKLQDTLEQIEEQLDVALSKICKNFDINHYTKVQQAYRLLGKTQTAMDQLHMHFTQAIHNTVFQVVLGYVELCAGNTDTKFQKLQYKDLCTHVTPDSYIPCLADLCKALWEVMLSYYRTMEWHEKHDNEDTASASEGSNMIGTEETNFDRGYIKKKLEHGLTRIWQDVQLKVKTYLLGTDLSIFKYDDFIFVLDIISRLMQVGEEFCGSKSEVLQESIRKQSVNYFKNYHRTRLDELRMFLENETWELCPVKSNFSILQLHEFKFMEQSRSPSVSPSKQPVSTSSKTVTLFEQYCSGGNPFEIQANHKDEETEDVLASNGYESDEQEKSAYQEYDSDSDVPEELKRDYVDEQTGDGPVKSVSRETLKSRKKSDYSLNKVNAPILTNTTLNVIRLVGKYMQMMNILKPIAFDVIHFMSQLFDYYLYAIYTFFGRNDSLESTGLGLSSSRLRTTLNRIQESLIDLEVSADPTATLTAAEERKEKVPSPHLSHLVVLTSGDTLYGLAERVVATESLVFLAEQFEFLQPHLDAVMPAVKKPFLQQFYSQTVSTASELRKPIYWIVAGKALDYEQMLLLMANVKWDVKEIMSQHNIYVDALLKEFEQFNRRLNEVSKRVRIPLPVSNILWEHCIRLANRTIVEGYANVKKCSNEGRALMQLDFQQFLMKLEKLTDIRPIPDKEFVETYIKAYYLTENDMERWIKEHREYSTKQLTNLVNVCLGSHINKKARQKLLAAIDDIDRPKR

Amino acid sequences for entries named in this document (tags omitted). A change or cut given only in a name is not applied to a line headed by its entry.
UniProt P35609: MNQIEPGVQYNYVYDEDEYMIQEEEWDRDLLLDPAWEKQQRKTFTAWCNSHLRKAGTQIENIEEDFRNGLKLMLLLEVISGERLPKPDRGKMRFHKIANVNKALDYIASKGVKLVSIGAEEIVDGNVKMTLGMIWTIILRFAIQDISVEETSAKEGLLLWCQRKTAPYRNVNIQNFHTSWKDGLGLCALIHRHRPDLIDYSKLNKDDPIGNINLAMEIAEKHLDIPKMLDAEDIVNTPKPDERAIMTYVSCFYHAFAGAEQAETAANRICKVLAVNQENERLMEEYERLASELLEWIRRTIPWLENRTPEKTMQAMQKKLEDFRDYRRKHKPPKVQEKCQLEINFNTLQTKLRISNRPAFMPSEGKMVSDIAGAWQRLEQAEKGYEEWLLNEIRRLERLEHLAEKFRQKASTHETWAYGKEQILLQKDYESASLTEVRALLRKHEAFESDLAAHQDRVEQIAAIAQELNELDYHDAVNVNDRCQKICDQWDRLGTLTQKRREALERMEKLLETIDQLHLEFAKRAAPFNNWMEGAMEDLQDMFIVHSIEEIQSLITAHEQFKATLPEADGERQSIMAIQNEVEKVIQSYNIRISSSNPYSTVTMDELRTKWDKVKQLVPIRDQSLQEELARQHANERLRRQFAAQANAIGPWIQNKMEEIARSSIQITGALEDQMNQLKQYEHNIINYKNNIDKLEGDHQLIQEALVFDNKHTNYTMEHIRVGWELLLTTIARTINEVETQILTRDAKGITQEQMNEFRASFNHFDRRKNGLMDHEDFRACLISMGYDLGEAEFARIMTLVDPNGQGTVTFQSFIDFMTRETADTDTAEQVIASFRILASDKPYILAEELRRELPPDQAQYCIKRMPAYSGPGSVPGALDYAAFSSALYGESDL
UniProt Q9BZL4: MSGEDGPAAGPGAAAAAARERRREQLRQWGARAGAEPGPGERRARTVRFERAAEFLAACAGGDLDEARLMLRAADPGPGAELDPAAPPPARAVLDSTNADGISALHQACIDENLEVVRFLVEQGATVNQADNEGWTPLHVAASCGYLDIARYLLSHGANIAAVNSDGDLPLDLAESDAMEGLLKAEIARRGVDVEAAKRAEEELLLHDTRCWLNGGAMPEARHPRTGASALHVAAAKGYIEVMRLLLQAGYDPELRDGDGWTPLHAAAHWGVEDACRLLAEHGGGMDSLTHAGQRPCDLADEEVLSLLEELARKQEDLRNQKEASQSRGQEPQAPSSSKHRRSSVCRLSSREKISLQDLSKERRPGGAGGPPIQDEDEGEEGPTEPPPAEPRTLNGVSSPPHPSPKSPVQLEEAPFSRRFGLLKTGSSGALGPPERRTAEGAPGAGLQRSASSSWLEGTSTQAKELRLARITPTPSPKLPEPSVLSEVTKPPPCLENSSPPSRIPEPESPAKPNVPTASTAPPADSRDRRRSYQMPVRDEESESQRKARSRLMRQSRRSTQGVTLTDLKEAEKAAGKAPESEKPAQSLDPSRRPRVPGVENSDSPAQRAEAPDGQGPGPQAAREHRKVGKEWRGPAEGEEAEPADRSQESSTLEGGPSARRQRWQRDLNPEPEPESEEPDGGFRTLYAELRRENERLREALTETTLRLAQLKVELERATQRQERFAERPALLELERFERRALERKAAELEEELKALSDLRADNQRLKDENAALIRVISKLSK

[2] = target: T1, B1153 protein; assay: yeast two-hybrid (PROQUEST, GAL4), B1153 full-length ORF as bait, Human Brain cDNA library prey
Procedure: By the PROQUEST™ TWO-Hybrid system (Invitrogen) utilizing the in vivo gene expression system of GAL4 series yeast, a search for a protein that interacts with the protein of this invention was carried out. Screening for a protein that interacts with B1153 was conducted for the Human Brain cDNA library with the full-length ORF region (86 bp to 2977 bp) of the B1153 gene as a bait. In this case, protocol according to the manual attached to the system was used.

[3] = target: T1, B1153 protein; assay: yeast two-hybrid (PROQUEST, GAL4), B1153 full-length ORF as bait
[4] = target: T1, B1153 protein; assay: yeast two-hybrid; only partial prey clones were tested

Substance: skeletal muscle alpha 2 actinin (from UniProt P35609 1-894)
- binding [1]: binds

Substance: myosin binding subunit 85 partial sequence, Prey-No. 7 (428 aa to 657 aa) (from UniProt Q9BZL4 428-657)
- binding [2]: binds

Substance: skeletal muscle alpha 2 actinin partial sequence, Prey-No. 10 (309 aa to 528 aa) (from UniProt P35609 309-528)
- binding [2]: binds
- binding [3]: binds

Substance: myosin binding subunit 85 (from UniProt Q9BZL4 1-782)
- binding [4]: binds
